Data as given in PubChem BioAssay AID743121 (NCATS, 2013)
Test: 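Partners whose loss is lethal together with topoisomerase I blockade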 (primary screen). Cells: MDA-MB-231 cells, a human breast cancer line. Reagents: single siRNA against human genes, 20 nM siRNA (0.8 pmol per well). Time to read-out: 120 h (drug added 48 h after transfection, read 72 h later). Challenge: camptothecin 20 nM (about EC30) for 72 h; vehicle 0.1% DMSO in parallel plates. Detection: 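CellTiter-Glo ATP signal, scaled to control siRNA as percent viability; sensitisation given as log2 of untreated divided by camptothecin-treated viability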. Direction: log2 vehicle/camptothecin viability: higher = stronger sensitisation to camptothecin; viability with camptothecin: higher = more viable cells. Units: viability with camptothecin in % of control. Active means: 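Each gene scored by redundant siRNA activity (RSA) over its individual siRNA ratios; a gene is called active at p < 0.001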.
Shown is an unselected part of about 26,000 deposited reagents. Over the whole deposit, 167 (0.63%) got an active call. 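Calls are per gene from RSA p-values that are not deposited; an individual active-marked siRNA can sensitise only weakly.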 Reagents against one gene are numbered here. Not all columns of the deposit are shown.

EAF1 #1
- log2 vehicle/camptothecin viability: -0.064
- viability with camptothecin: 87.7
- outcome: inactive

EAF1 #2
- log2 vehicle/camptothecin viability: -0.114
- viability with camptothecin: 115
- outcome: inactive

EAF1 #3
- log2 vehicle/camptothecin viability: -0.049
- viability with camptothecin: 58.9
- outcome: inactive

EAF1 #4
- log2 vehicle/camptothecin viability: 0.248
- viability with camptothecin: 23
- outcome: inactive

NPR2 #1
- log2 vehicle/camptothecin viability: -0.128
- viability with camptothecin: 66.7
- outcome: inactive

NPR2 #2
- log2 vehicle/camptothecin viability: -0.31
- viability with camptothecin: 70.7
- outcome: inactive

NPR2 #3
- log2 vehicle/camptothecin viability: 0.944
- viability with camptothecin: 15.3
- outcome: inactive

NPR2 #4
- log2 vehicle/camptothecin viability: -0.262
- viability with camptothecin: 104
- outcome: inactive

TBX21 #1
- log2 vehicle/camptothecin viability: -0.51
- viability with camptothecin: 120
- outcome: inactive

TBX21 #2
- log2 vehicle/camptothecin viability: -0.109
- viability with camptothecin: 98.5
- outcome: inactive

TBX21 #3
- log2 vehicle/camptothecin viability: 0.00846
- viability with camptothecin: 67.9
- outcome: inactive

TBX21 #4
- log2 vehicle/camptothecin viability: 0.165
- viability with camptothecin: 48.3
- outcome: inactive

CYP8B1 #1
- log2 vehicle/camptothecin viability: -0.0755
- viability with camptothecin: 60.1
- outcome: inactive

CYP8B1 #2
- log2 vehicle/camptothecin viability: -0.0051
- viability with camptothecin: 78
- outcome: inactive

CYP8B1 #3
- log2 vehicle/camptothecin viability: 0.0691
- viability with camptothecin: 97.5
- outcome: inactive

PDZD2 #1
- log2 vehicle/camptothecin viability: -0.176
- viability with camptothecin: 92.8
- outcome: inactive

PDZD2 #2
- log2 vehicle/camptothecin viability: -0.262
- viability with camptothecin: 85.5
- outcome: inactive

PDZD2 #3
- log2 vehicle/camptothecin viability: -0.493
- viability with camptothecin: 39.4
- outcome: inactive

PDZD2 #4
- log2 vehicle/camptothecin viability: -0.742
- viability with camptothecin: 51.9
- outcome: inactive

CLIC6 #1
- log2 vehicle/camptothecin viability: 0.0162
- viability with camptothecin: 77.9
- outcome: inactive

CLIC6 #2
- log2 vehicle/camptothecin viability: -0.296
- viability with camptothecin: 24.2
- outcome: inactive

CLIC6 #3
- log2 vehicle/camptothecin viability: -0.0707
- viability with camptothecin: 93.1
- outcome: inactive

CLIC6 #4
- log2 vehicle/camptothecin viability: 0.262
- viability with camptothecin: 48.3
- outcome: inactive

PROZ #1
- log2 vehicle/camptothecin viability: -0.338
- viability with camptothecin: 92.6
- outcome: inactive

PROZ #2
- log2 vehicle/camptothecin viability: -0.23
- viability with camptothecin: 25
- outcome: inactive

PROZ #3
- log2 vehicle/camptothecin viability: -0.284
- viability with camptothecin: 101
- outcome: inactive

PROZ #4
- log2 vehicle/camptothecin viability: 0.0398
- viability with camptothecin: 92.1
- outcome: inactive

Reformatted: results already given
target gene	siRNA no.	log2 vehicle/camptothecin viability	viability with camptothecin	outcome
TBX21	4	0.165	48.3	inactive
CYP8B1	1	-0.0755	60.1	inactive
CYP8B1	2	-0.0051	78	inactive
